According to PubChem BioAssay AID1508600 (Functional Genomics Laboratory (NCATS/FGL), 2020):
About 3,700 (7%) of roughly 53,000 sequences were called active.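 How the source made its calls: active means gene knockdowns whose robust z-score for IL-1 alpha signal is at least 2 or at most -2, so actives lie on both sides; inactive means the rest.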 This is one part of the list.

Assay: Components of the Cytosolic LPS Sensing Pathway: Gene Identification via Genome-wide siRNA Screen;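 further: robust z of the log signal after scaling to non-targeting control siRNA wells of the plate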
Details: RAW264.7 macrophages, IL-1a HTRF, actives lie on both sides, screened at 100 nM (by protocol), cells primed 5 h with Pam3CSK4 first
Outline: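 Mouse macrophage line RAW264.7 is transfected with siRNA (100 nM final), grown 48h, primed with TLR ligand Pam3CSK4 5 h and given intracellular LipidA 24 h. IL-1a in supernatant is read by HTRF and viability by luminescence.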

Row | Sequence | z-score
1 | CCAUCUUGGAGAUCCUGAUTT against Kat5 | active: -2.46
2 | GCACUUGCCAGGUACUAUGTT against Cnga1 | inactive: 0.391
3 | GCCGAGUGGCAAAAGAUGUTT against Ybey | inactive: -0.353
4 | GCUGAUUUCUCAAACAUGATT against Serpinb10 | inactive: -0.489
5 | GGGUACGAUCGUGUGUUGUTT against Rpl8 | inactive: 1.43
6 | GGACCAUCCAUUGUGAUCUTT against Slc7a3 | inactive: -1.32
7 | GCAUGAAGUUGCACAUCCCTT against Cox8b | inactive: -0.42
8 | GGAUAGGACAGAGAUAAAATT against Wnt2b | inactive: -0.216
9 | GGUCACUGAAUUGUCAAUCTT against Polr3h | inactive: 0.773
10 | GGUCAAUGCCUUUGAGUUUTT against Cdc42ep1 | inactive: -0.366
11 | CGUGUUUGCAUAAUGUUUATT against Arih1 | inactive: -1.31
12 | GGAAAUCAAGAAGCAGAUCTT against Epb41l1 | inactive: 0.399
13 | GCAGCCUAUGGAAGAUCACTT against Tle4 | active: 2.8
14 | GGGAUCAACAUUUACCGAATT against Ablim1 | inactive: 0.596
15 | GCCUGAACUCCUAUGAGCUTT against Krt42 | inactive: 1.18
16 | GGCUACAAAGGAGUUCCUATT against Sgf29 | inactive: 0.516
17 | GGAACCAGUCGACUACUAUTT against Sstr1 | inactive: 0.214
18 | CGGCAGAAGGGUUUUUAUGTT against Rnf126 | inactive: -0.365
19 | GGCUCAGCUAGAGGUUUCUTT against Ugt1a10 | inactive: -0.989
20 | GGGCCUUAAUUUUCCUUUUTT against Podxl | inactive: -0.107
21 | CCAAAUGCUAAGUAUACCUTT against Abhd17b | inactive: -1.32
22 | GGGAGAAACCAUUUCAAGATT against Gm5084 | inactive: 0.0759

Row | Sequence | z-score
23 | GCUGAUAACAGACAUCAUCTT against Pitpnm2 | inactive: 0.836
24 | CGGUGUUUGAAAUCGUGCATT against Dgcr6 | inactive: 0.533
25 | CCUCAAAUUAUUGUUGGCATT against Ppip5k1 | active: -2.07
26 | GCUUUAGUACAGGCCUCUATT against Tent4a | inactive: 0.444
27 | CCAAGAGAACUAUUCAGUUTT against Tuba8 | inactive: 0.994
28 | GGCUUUAGAGACAAUAUCATT against Zfand2a | inactive: 0.403
29 | GGCACUCCAUAGUGAUUUCTT against 5730522E02Rik | inactive: 0.714
30 | GGAUAAGCAGUACUUUAAATT against Tiprl | inactive: -0.277
31 | CCAAUGCUUCGUGAAAGACTT against Eras | inactive: -0.382
32 | GCUUCAUCGCAUGAACCGATT against Rabggtb | inactive: -0.0795
33 | GGCAUUGCACAAAAUCUAATT against Slc22a22 | inactive: 0.909
34 | GGUGUGUCGAAGUCGAAGGTT against Pip5kl1 | inactive: -1.11
35 | GGGAGUUACCGUUUUGUAUTT against Herc1 | inactive: -0.818
36 | GUGGGAAACAUUUAAUGCCTT against Vmn1r81 | inactive: -1.06
37 | GGCUGCUACACAUGCAGAUTT against Gucy2e | inactive: 0.426
38 | GGCAUGGAGAUGCUACUGATT against Ptk2 | inactive: -0.904
39 | GGUGAUGGUGUAAAAUACATT against Dab2 | active: 4.98
40 | GCUCAUCGUGUUUUCAACCTT against Cbr3 | inactive: -0.034
41 | CCAGUACCUCAAUAUCAAATT against Lsm2 | inactive: 0.533
42 | GGAUCAUUAGCAAACACAATT against Capn1 | inactive: 0.104
43 | GCAUAUUUCCGAGGAUCAATT against Poglut1 | inactive: -1.14
44 | GGAAUGAACCUAUCUUAUATT against Prkab1 | inactive: 1.14

Look-ups from the entries so far.
z-score, GGACCAUCCAUUGUGAUCUTT against Slc7a3 reads inactive: -1.32
z-score, CCAAUGCUUCGUGAAAGACTT against Eras reads inactive: -0.382

(cont.)

Row | Sequence | z-score
45 | GGCACAUUGCUGAAGCCCATT against Aldoa | active: -2.42
46 | GGUAUAAUUGGAAUUGUGATT against Morc1 | inactive: -0.658
47 | GGAUUUACCACCAAUUAAATT against Vars | inactive: -0.393
48 | GCAGCCUAUUACCUCAGACTT against Nwd2 | inactive: 1.02
49 | GGAUUUUAAACCUUAAGGUTT against Ssty1 | inactive: 0.49
50 | GGUCUUCUUGACAAUGUAATT against Bpnt1 | inactive: 0.31
51 | GGACAUUGUCUAUUAUUGGTT against Gabrd | inactive: -0.585
52 | GGUGCUUAUAUUGCUUCCCTT against Psmb5 | inactive: -0.147
53 | GAACAUGGAAAGCAGCAUUTT against Lce1m | inactive: -0.757
54 | GAUAUGCAAGGAGGAGGCATT against Pramel37 | inactive: -0.229
55 | GGACUUGACCUCAAGGGAATT against Sox6 | active: 2.35
56 | GCACAUAUCGUGUCUCAAATT against Plgrkt | inactive: -0.809
57 | GACACCCUGUGACACCAAGTT against Sprr1b | inactive: -0.597
58 | GCGCGACAACCUGAUUCAATT against Nlrx1 | inactive: -0.0305
59 | GGAUUUGAUGUGUUCAAUGTT against Nmt2 | inactive: 0.48
60 | GGAUCCAUUAGUCAAGAAGTT against Ints12 | inactive: 0.566
61 | GGGUAUGGACCCUAUAUAATT against Osgep | inactive: 0.2
62 | GGAACCUAAUUAGCAAAGCTT against Riiad1 | inactive: 0.728
63 | GGCGACAAAAAGGCUAAGCTT against Khnyn | inactive: 0.437
64 | GGCAAAGAUCGCAUCUUAATT against Ago2 | inactive: 1.35
65 | GGCGUGAACCAAACAGACUTT against Calcrl | inactive: -0.604
66 | GGAAUAUGCUGUCAAGAUCTT against Mknk2 | inactive: -0.322

Row | Sequence | z-score
67 | GGAUAAAGGAAAAGAAACATT against Rcvrn | inactive: -1.34
68 | GGAGGAUUUCAAGACAGCATT against Tprg | inactive: -1.12
69 | CCGUCUGGACAACAAACACTT against P2rx5 | inactive: 0.616
70 | GGCAUUCCAGUAAAGGAGCTT against Fbxw4 | inactive: 0.147
71 | GCCGGUGAAUAAUCAUGCUTT against Nrn1 | inactive: 0.0683
72 | GGUCCUAGCUUCCUUUUACTT against Lrrc8b | inactive: -0.0324
73 | CCUUCCAGUAGUAAUUCAUTT against Hopx | inactive: 0.396
74 | CUACUUCGAGAACAUGGGUTT against Tpgs1 | inactive: -0.749
75 | GGAAAGCAAGUCGUAAGCCTT against Mrps10 | inactive: -0.755
76 | GGAAACUUCCCUUCCUAACTT against Snrpc | inactive: -0.397
77 | GGAAGUCAAGUAGAACUGUTT against Agtr2 | inactive: -0.206
78 | GCAGAAUAUUAACCAGUGUTT against Ptp4a2 | inactive: 1.15
79 | GCCUAUGCAGCUCUCUCUGTT against Acat3 | inactive: 0.772
80 | CGGUUUUGACCUUCCACCUTT against Olfr110 | inactive: 0.451
81 | GGAGAUACAGAAAUUUCUCTT against Baat | inactive: 0.847
82 | GGGAAGGCUGUGAAUACAGTT against Syt7 | inactive: 1.87
83 | GGUCAGCAGUUUUCUAACUTT against Mtus2 | inactive: -1.95
84 | GGGUAGAGACUACUUAGUATT against Pramel7 | inactive: 0.623
85 | GGAUACCUAUCUGCACUUCTT against Prss52 | inactive: -1.74
86 | GGUUUUUGAAGAGUUAACATT against D16Ertd472e | inactive: 0.0461
87 | GGACUUACAUGGAAUUUUATT against Eftud2 | active: -2.07
88 | GCAUGUAUGCUGGAAAAUCTT against Zfp942 | inactive: -0.403

Already shown: an excerpt of the list.
Row | Sequence | z-score
74 | CUACUUCGAGAACAUGGGUTT against Tpgs1 | inactive: -0.749
75 | GGAAAGCAAGUCGUAAGCCTT against Mrps10 | inactive: -0.755
76 | GGAAACUUCCCUUCCUAACTT against Snrpc | inactive: -0.397
77 | GGAAGUCAAGUAGAACUGUTT against Agtr2 | inactive: -0.206

Following part

Row | Sequence | z-score
89 | GCAGAGGCUCUCCUUAUAGTT against Ccser2 | inactive: 0.747
90 | CGAACCACUUGUUUAAAAUTT against Cops2 | inactive: 0.306
91 | GGAUCUUUCCUGAUUUAUATT against Ggt5 | inactive: 0.989
92 | GGCCUUUAAGACCAUUCGATT against Scyl1 | inactive: 0.252
93 | GGGCUAGCUAACCACAAUUTT against Glipr2 | inactive: 0.818
94 | GGCCUUAGUUUAUACAUGUTT against Dusp18 | inactive: 0.628
95 | GGGCUGACUGUGAAGUAUGTT against Cdnf | inactive: 1.44
96 | GCAAUUGUUAGAAAAAGGGTT against Rnasel | inactive: -0.382
97 | GGAUGGACCUGUUGUGAUUTT against Ssr2 | inactive: 1.47
98 | GGCUGCUGAUUAUAUGUUCTT against Sprr2e | inactive: 0.842
99 | GGAUAACCUUUUUGAAUGGTT against Ube2j1 | inactive: 0.137
100 | GGAGUUUAAUUACCAAACATT against Edrf1 | inactive: -0.747
101 | GGUGAGCGACAAUAUGAGUTT against Fsd1 | inactive: -0.091
102 | GGAGAGAAUAAGAAGAAGATT against Ptprc | inactive: 0.115
103 | GGACUUUCUAAAUAGCUUCTT against Gucy1a1 | inactive: 0.883
104 | GGCUUUUGACAAGCAUAUGTT against Snrpn | inactive: -0.419
105 | GGGUAUAGAAUUGUCUAUUTT against Fn1 | inactive: 1.19
106 | GGUAUGUCUGCAUAAAUGUTT against Cyp2c38 | active: 2.74
107 | GGGUAGCUUUAAAUAAAGGTT against Olfr801 | active: 2.47
